# From article PMC6773851, “Identification of protein-protein and ribonucleoprotein complexes containing Hfq” (Scientific Reports, 2019)
# Amino acid sequences for entries named in this document (tags omitted).
# UniProt P0A6X3: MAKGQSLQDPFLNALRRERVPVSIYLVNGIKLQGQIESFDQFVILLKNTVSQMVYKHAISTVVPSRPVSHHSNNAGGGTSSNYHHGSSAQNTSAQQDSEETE
# These are yes or no findings as the source states them, for the method shown. In cells and extracts the contact can be indirect. Here binding means that the protein was enriched with, or labelled near, the bait; the list need not be complete. For some assays here: No binding means not detected with the bait.
# B1: Poly(A)polymerase, PAP (purified) (natural protein, E. coli, UniProt P0ABF1 11-465, looked up)
# chain: KVLSREESEAEQAVARPQVTVIPREQHAISRKDISENALKVMYRLNKAGYEAWLVGGGVRDLLLGKKPKDFDVTTNATPEQVRKLFRNCRLVGRRFRLAHVMFGPEIIEVATFRGHHEGNVSDRTTSQRGQNGMLLRDNIFGSIEEDAQRRDFTINSLYYSVADFTVRDYVGGMKDLKDGVIRLIGNPETRYREDPVRMLRAVRFAAKLGMRISPETAEPIPRLATLLNDIPPARLFEESLKLLQAGYGYETYKLLCEYHLFQPLFPTITRYFTENGDSPMERIIEQVLKNTDTRIHNDMRVNPAFLFAAMFWYPLLETAQKIAQESGLTYHDAFALAMNDVLDEACRSLAIPKRLTTLTRDIWQLQLRMSRRQGKRAWKLLEHPKFRAAYDLLALRAEVERNAELQRLVKWWGEFQVSAPPDQKGMLNELDEEPSPRRRTRRPRKRAPRREGTA
# notes: Poly(A) polymerase I, E. coli
# Tests used:
# [1] = target: HfqTT (TAP-tagged Hfq) (E. coli) (UniProt P0A6X3); experiment: condition: only after RNase A treatment (0.1 µg/µl, 30 min, 37 °C); affinity purification with mass spectrometry; TAP-tag: HfqTT (or the TAP-tag peptide as control) as bait in extracts of IBhfq95Δhfq, exponential and stationary phase; IgG Sepharose, TEV cleavage, calmodulin beads; half of each sample treated with 0.1 µg/µl RNase A for 30 min at 37 °C before the calmodulin beads; an interaction called RNA dependent when the number of peptides fell by more than 30% after RNase A
# [2] = target: HfqTT (TAP-tagged Hfq) (E. coli) (UniProt P0A6X3); experiment: affinity purification with mass spectrometry; TAP-tag: HfqTT (or the TAP-tag peptide as control) as bait in extracts of IBhfq95Δhfq, exponential and stationary phase; IgG Sepharose, TEV cleavage, calmodulin beads; half of each sample treated with 0.1 µg/µl RNase A for 30 min at 37 °C before the calmodulin beads; an interaction called RNA dependent when the number of peptides fell by more than 30% after RNase A
binder,measurement,setting,value
B1,binding,[1],no binding
same,binding,[2],binds
